PubChem BioAssay AID1224830, NIAID, 2016

Purpose: 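Genes whose knock-down alters the TNF-alpha reporter response to LPS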 (primary screen)
Cells: human THP-1 monocytic leukaemia cells, TNF dual-luciferase reporter clone, PMA-differentiated to macrophage-like cells
Knock-down reagent: siRNA pool against human genes, 50 nM
Duration: LPS for 4 h, given about 3 days after siRNA transfection
Challenge: bacterial LPS (TLR4 ligand), 10 ng/ml
Detection: 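Ratio of firefly to renilla light, scaled to the plate median and expressed as a robust z-score per replicate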
Reading the numbers: TNF reporter robust z-score: higher = stronger TNF reporter response to LPS
Active means: 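a well is active when its z-score exceeds 2.8 or falls below -1.5; control wells carry no call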
Shown is one part, drawn at random, of about 18,000 deposited reagents. About 2,900 of all reagents (16%) were called active. 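Calls are made per well; low scores hint the gene aids the LPS response, high scores that it dampens it.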 Unmarked entries are inactive. Repeated entries: four replicate wells of each siRNA pool.

CWH43 | TNF reporter robust z-score = -0.81
CWH43 | TNF reporter robust z-score = 0.55
CWH43 | TNF reporter robust z-score = 0.74
CWH43 | TNF reporter robust z-score = 0.72
SLC31A2 | TNF reporter robust z-score = 0.05
SLC31A2 | TNF reporter robust z-score = 2.2
SLC31A2 | TNF reporter robust z-score = 0.76
SLC31A2 | TNF reporter robust z-score = 0.16
PAN2 | TNF reporter robust z-score = 0.84
PAN2 | TNF reporter robust z-score = 0.01
PAN2 | TNF reporter robust z-score = 0.66
PAN2 | TNF reporter robust z-score = 0.08
MADCAM1 | TNF reporter robust z-score = 0.79
MADCAM1 | TNF reporter robust z-score = 1.24
MADCAM1 | TNF reporter robust z-score = 1.58
MADCAM1 | TNF reporter robust z-score = -1.3
ZNF648 | TNF reporter robust z-score = -0.44
ZNF648 | TNF reporter robust z-score = -1.02
ZNF648 | TNF reporter robust z-score = -0.37
ZNF648 | TNF reporter robust z-score = -0.59
MTCP1 | TNF reporter robust z-score = 2.25
MTCP1 | TNF reporter robust z-score = 3.12 (active)
MTCP1 | TNF reporter robust z-score = -1.36
MTCP1 | TNF reporter robust z-score = -0.17
KCNH4 | TNF reporter robust z-score = 1.14
KCNH4 | TNF reporter robust z-score = 0.58
KCNH4 | TNF reporter robust z-score = -0.01
KCNH4 | TNF reporter robust z-score = 0.86
ACAP2 | TNF reporter robust z-score = -0.97
ACAP2 | TNF reporter robust z-score = -0.13
ACAP2 | TNF reporter robust z-score = -1.13
ACAP2 | TNF reporter robust z-score = -0.63

2 entries from above in another layout.
Gene,TNF reporter robust z-score
CWH43,0.74
CWH43,0.72
